Source: PMC11345397
Changes are numbered by the printed parent chain. Results are given in words; binding and its absence hold for the method and conditions named. In cells and extracts the contact can be indirect. Some binding calls cover weakened binding; strength is not graded here. Tags and fused reporters may be left off the sequences shown.

By UniProt entry, the sequences of proteins in these tests, tags left out.
UniProt P15927: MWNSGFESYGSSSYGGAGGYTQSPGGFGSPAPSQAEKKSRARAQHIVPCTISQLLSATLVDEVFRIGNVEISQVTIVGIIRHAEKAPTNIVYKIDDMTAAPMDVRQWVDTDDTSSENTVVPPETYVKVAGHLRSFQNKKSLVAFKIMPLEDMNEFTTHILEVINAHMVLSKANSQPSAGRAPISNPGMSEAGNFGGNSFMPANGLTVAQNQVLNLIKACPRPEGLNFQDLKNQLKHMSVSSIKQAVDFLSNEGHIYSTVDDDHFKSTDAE
UniProt P09874: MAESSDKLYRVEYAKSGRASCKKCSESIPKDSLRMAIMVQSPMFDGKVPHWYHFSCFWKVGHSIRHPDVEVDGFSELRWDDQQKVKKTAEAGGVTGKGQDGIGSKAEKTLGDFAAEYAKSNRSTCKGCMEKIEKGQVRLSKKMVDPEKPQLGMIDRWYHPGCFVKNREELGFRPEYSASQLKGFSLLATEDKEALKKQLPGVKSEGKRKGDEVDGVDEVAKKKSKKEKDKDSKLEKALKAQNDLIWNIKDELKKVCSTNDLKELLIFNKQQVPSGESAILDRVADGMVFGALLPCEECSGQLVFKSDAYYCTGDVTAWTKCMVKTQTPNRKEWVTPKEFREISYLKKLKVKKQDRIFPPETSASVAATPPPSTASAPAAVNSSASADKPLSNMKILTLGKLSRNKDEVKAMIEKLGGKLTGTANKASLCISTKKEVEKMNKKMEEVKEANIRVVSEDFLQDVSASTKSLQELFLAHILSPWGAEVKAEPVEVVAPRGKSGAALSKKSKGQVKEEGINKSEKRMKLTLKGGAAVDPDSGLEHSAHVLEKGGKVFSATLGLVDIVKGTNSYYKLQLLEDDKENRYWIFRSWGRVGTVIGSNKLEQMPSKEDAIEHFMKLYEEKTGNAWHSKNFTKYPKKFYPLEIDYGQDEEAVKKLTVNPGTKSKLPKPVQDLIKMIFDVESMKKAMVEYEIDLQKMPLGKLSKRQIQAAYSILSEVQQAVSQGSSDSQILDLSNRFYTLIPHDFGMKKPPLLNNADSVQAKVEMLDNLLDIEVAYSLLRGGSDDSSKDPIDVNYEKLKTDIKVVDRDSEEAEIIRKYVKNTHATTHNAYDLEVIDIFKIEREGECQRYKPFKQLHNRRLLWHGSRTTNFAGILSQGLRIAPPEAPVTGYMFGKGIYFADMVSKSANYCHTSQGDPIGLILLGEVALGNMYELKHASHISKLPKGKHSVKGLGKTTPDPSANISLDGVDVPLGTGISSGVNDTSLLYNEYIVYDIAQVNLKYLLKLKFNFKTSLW

What was measured:
[1] = target: T1, SFB-tagged DTX2B (wild type) (human) (UniProt Q86UW9); test: pull-down; streptavidin pull-down (MagReSyn Streptavidin beads, 1 h, 4 °C) of SFB-tagged bait from lysates of transfected HEK293T cells treated with DMSO and then 2 mM H2O2 for 10 min; lysis in 50 mM Tris-HCl pH 7.5, 150 mM NaCl, 1% NP-40 with PARG inhibitor and olaparib; immunoblotting
T1 sequence: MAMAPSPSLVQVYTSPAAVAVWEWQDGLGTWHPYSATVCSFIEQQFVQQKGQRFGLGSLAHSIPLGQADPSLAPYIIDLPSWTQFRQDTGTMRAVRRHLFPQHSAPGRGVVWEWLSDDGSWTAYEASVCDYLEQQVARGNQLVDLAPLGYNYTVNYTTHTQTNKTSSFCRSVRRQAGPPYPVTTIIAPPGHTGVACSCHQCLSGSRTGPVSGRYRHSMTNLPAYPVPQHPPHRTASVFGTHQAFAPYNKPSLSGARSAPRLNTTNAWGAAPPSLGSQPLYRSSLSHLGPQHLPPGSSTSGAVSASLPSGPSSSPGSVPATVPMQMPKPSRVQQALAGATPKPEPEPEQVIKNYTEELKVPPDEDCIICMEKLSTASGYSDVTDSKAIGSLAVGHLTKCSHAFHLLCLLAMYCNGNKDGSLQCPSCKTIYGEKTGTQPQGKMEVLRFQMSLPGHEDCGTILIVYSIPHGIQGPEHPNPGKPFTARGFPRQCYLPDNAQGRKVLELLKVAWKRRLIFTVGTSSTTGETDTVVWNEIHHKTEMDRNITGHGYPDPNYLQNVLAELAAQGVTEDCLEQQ

[2] = target: T1, SFB-tagged DTX2B (wild type) (human); test: condition: only cells pretreated with 10 μM olaparib (PARPi); pull-down; as a1, but cells pretreated with 10 μM olaparib (PARPi) for 18 h before 2 mM H2O2 for 10 min
[3] = target: T2, SFB-tagged DTX2B DTC∗ (S521A/H535A/H547A) (human) (UniProt Q86UW9); test: pull-down; streptavidin pull-down (MagReSyn Streptavidin beads, 1 h, 4 °C) of SFB-tagged bait from lysates of transfected HEK293T cells treated with DMSO and then 2 mM H2O2 for 10 min; lysis in 50 mM Tris-HCl pH 7.5, 150 mM NaCl, 1% NP-40 with PARG inhibitor and olaparib; immunoblotting
T2 sequence: T1 sequence with S521A, H535A, H547A

| Substance | binding [1] | binding [2] | binding [3] |
| --- | --- | --- | --- |
| RPA32 (replication protein A 32 kDa subunit) (from UniProt P15927 1-270) | no binding | – | – |
| PARP1 (from UniProt P09874 1-1014) | binds | no binding | binds |
